Data from PubChem BioAssay AID493014 (National Center for Advancing Translational Sciences (NCATS), 2011).
The other results are listed elsewhere or left out. Shown are side measurements of this screen, not its main read-out; they come without a call. Compounds called inactive in the main read-out are mostly missing here. The note in brackets gives the kind of curve behind each potency; many fits are weak.

Assay: qHTS Assay to Find Inhibitors of Chronic Active B-Cell Receptor Signaling
Conditions: ABC-DLBCL IkBa-CBG/CBR reporter, luminescence ratio (green luciferase fused to IkBa over red control in TMD8 lymphoma cells), 4 h
Outline: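 Compounds up to 46 uM were incubated four hours with TMD8 cells whose green CBG68 luciferase is fused to IkappaBalpha; red CBR luminescence normalised the signal, and concentration-effect curves were fitted to fusion, red and ratio data.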

[1] = measured here: CBR red luminescence, cell number
[2] = measured here: IkBa-CBG green luminescence

Cc1ccc(NC(=O)c2nc(S(=O)(=O)Cc3ccccc3C)ncc2Cl)cc1C
AC50 [1]: 8.91 µM [falling, partial curve]

CC(=O)c1ccccc1NC(=O)COC(=O)c1ccc2c(c1)nc(C)n2-c1ccccc1
AC50 [1]: 0.82 µM [rising, full curve, poor fit]

COc1ccccc1NC(=O)CSC1=Nc2ccccc2C2=NC(CC(=O)NCc3ccccc3)C(=O)N12 (stereo not drawn)
AC50 [1]: 14.1 µM [falling, partial curve]

O=C(O)CC1S/C(=N\N=C2\C(=O)Nc3ccccc32)N(c2ccc(O)cc2)C1=O (stereo not drawn)
AC50 [1]: 2.51 µM [falling, full curve]

Cc1cc(=O)n2[nH]c(SCc3ccc(Cl)cc3)nc2n1
AC50 [1]: 3.55 µM [falling, partial curve]

COc1ccc(C(=O)/C=C/Nc2c(C)n(C)n(-c3ccccc3)c2=O)cc1OC
AC50 [1]: 0.82 µM [rising, full curve, poor fit]

COc1ccc(-c2c(C)nn3c(N)c(C#N)cnc23)cc1OC
AC50 [1]: 2.82 µM [rising, full curve] | AC50 [2]: 4.47 µM [falling, full curve]

O=C(/C=C/c1ccccc1Br)c1ccc2c(c1)OCO2
AC50 [1]: 22.4 µM [falling, single point]

O=C(COC(=O)CC1CC2CCC1C2)Nc1c(F)cccc1F (stereo not drawn)
AC50 [1]: 3.16 µM [rising, full curve, poor fit]

CN(C)S(=O)(=O)c1cccc(NC(=O)CN(CCO)CC(=O)Nc2cccc(S(=O)(=O)N(C)C)c2)c1
AC50 [1]: 7.08 µM [rising, partial curve]

CCc1ccc(C(=O)NC(CC(C)C)C(=O)O)cc1 (stereo not drawn)
AC50 [1]: 1.3 µM [falling, full curve, poor fit]

O=C(C1CCCCC1)N1CCCC(c2nc3c(nnn3Cc3ccccc3)c(=O)[nH]2)C1 (stereo not drawn)
AC50 [1]: 15.8 µM [falling, single point]

CCN(CC)c1ccc(/C=C2\C(=O)c3ccc(C(=O)O)cc3C2=O)cc1
AC50 [1]: 18.4 µM [falling, single point]

COc1ccc(C2C(C(N)=O)=C(C)Nc3nc(-c4cccc(Cl)c4)nn32)cc1OC (stereo not drawn)
AC50 [2]: 20.6 µM [falling, partial curve, poor fit]

CC(=O)OCC(=O)[C@@]1(O)CC[C@H]2[C@@H]3CCC4=CC(=O)C=C[C@]4(C)[C@@]3(F)[C@@H](O)C[C@@]21C
AC50 [1]: 2.06 µM [rising, full curve, poor fit]

O=C(O)c1ccc(NS(=O)(=O)c2ccc3c(c2)C(=O)c2ccccc2C3=O)cc1
AC50 [1]: 10 µM [falling, partial curve, poor fit]

COc1ccc(OCC(=O)NC2CC(=O)N(c3ccc4c(c3)OCCO4)C2)cc1 (stereo not drawn)
AC50 [1]: 10 µM [falling, partial curve, poor fit]

CCCc1ccc2oc(C(=O)NCCc3cnn(C)c3)c(C)c2c1
AC50 [1]: 2.24 µM [rising, full curve, poor fit]

COC(=O)c1cn(C(=O)c2ccc(OC)c(OC)c2)c2ccccc12
AC50 [1]: 12.6 µM [rising, single point]

Cc1cc(C(F)F)n2nc(C(=O)Nc3ccccc3F)nc2n1
AC50 [1]: 5.8 µM [rising, full curve]

Cc1nn(-c2ccccc2)c2sc(-c3n[nH]c(=S)o3)cc12
AC50 [1]: 0.651 µM [rising, partial curve]

Cc1ccccc1C(=O)N1CCN(c2ccc(NC(=O)c3ccc4c(c3)OCCO4)cc2)CC1
AC50 [1]: 8.91 µM [falling, partial curve]

COc1ccccc1CNS(=O)(=O)c1ccc(NC(C)=O)cc1
AC50 [1]: 29.1 µM [falling, single point]

Fc1ccc2c(c1)C(c1ccncc1)=NNC(c1ccccc1)=N2
AC50 [1]: 10.3 µM [falling, partial curve]

COc1ccccc1NNC(=O)C(O)(c1ccccc1OC)c1ccccc1OC
AC50 [1]: 25.9 µM [falling, single point]

COc1ccc(OC)c(N2CC(O)(c3cccs3)[N+]3=C2SCCC3)c1 (stereo not drawn)
AC50 [1]: 0.631 µM [falling, full curve, poor fit]

O=C(NC(Cc1c[nH]c2ccccc12)C(=O)N/N=C/c1ccc(Cl)cc1)c1cccs1 (stereo not drawn)
AC50 [1]: 10 µM [falling, partial curve]

CC(=O)Nc1ccc(CN2CCc3c([nH]c4ccccc34)C2c2ccccn2)cc1 (stereo not drawn)
AC50 [1]: 6.31 µM [rising, single point]

Cc1cc(=O)[nH]c(N/N=C/c2cc(C)n(CC(F)(F)F)c2C)n1
AC50 [1]: 6.31 µM [falling, single point]

CC(O)(CS(=O)(=O)Cc1ccc(Cl)cc1)C(=O)Nc1cccc(C(F)(F)F)c1 (stereo not drawn)
AC50 [1]: 11.2 µM [falling, partial curve]

ClCc1csc(N/N=C/c2cccs2)n1
AC50 [1]: 2.82 µM [rising, full curve, poor fit]

Nc1ncncc1-c1ccc2ccccc2c1
AC50 [1]: 31.6 µM [falling, single point]

CC(C)c1ccc(NC2=NCC(=O)N2Cc2cccs2)cc1
AC50 [1]: 12.6 µM [rising, partial curve, poor fit]

Cc1[nH]c2ccc(-c3n[nH]c(=S)n3-c3ccccc3)cc2c1C
AC50 [1]: 13 µM [rising, partial curve, poor fit]

CC1CCN(c2ccccc2NC(=S)NC(=O)C(C)(C)C)CC1
AC50 [1]: 15.8 µM [rising, partial curve, poor fit]

COc1ccc(Cl)cc1C(=O)OCC(=O)NCc1cccs1
AC50 [1]: 4.61 µM [rising, partial curve, poor fit]

CCOC(=O)c1ccccc1NC(=O)CN(c1ccccc1)S(=O)(=O)N(C)C
AC50 [1]: 2.31 µM [rising, partial curve, poor fit]

CCOC(=O)N1CCN(c2nnnn2-c2ccccc2)CC1
AC50 [1]: 2.06 µM [rising, partial curve, poor fit]

O=C(CN1C(=O)CSC1=O)Nc1ccc(N2CCOCC2)cc1
AC50 [1]: 16.4 µM [falling, single point]

C/C(=N\NC(=O)c1ccc(F)cc1)c1ccc(N2CCOCC2)cc1
AC50 [1]: 10 µM [falling, partial curve]

Cc1cccc(-n2ncc3c(NCCCO)ncnc32)c1
AC50 [1]: 29.1 µM [falling, single point]

CCCCOc1ccc(C(=O)NCC(=O)NCCCn2nc(C)cc2C)cc1
AC50 [1]: 3.66 µM [rising, single point]

Cc1ccc(C(=O)Nc2ccc(C(=O)N/N=C/c3c[nH]c4ccccc34)cc2)cc1
AC50 [1]: 23.1 µM [falling, single point]

CCOc1cc(CNc2ccc(N3CCN(C(C)=O)CC3)cc2)cc(Br)c1OC
AC50 [1]: 32.6 µM [falling, partial curve, poor fit]

Cn1c(CSc2nnc(SCc3ccccc3)s2)nc2ccccc21
AC50 [1]: 35.5 µM [falling, single point]

CC(C)c1ccc(N(C(=O)c2snc(C(N)=O)c2N)C(C(=O)NC2CCCC2)c2ccncc2)cc1 (stereo not drawn)
AC50 [1]: 15.8 µM [falling, single point]

c1ccc(C2=Nn3c(Cn4nnc5ccccc54)nnc3SC2)cc1
AC50 [1]: 11.2 µM [falling, partial curve, poor fit]

COc1ccc(-c2c3c(=O)n(C)c(=O)n(C)c3cn2Cc2cccnc2)cc1
AC50 [1]: 4.47 µM [rising, full curve, poor fit]

O=C1c2cccnc2C(Nc2cccc(F)c2)N1Cc1ccco1 (stereo not drawn)
AC50 [1]: 35.5 µM [falling, single point]

COc1cc(OC)cc(C(=O)c2c(C)c(C#N)c3ccccn23)c1
AC50 [1]: 20 µM [rising, partial curve, poor fit]

O=C(O)CC1(CC(=O)NCc2ccc(F)cc2)CCCCC1
AC50 [1]: 35.5 µM [rising, partial curve, poor fit]

COc1ccc(OC)c(S(=O)(=O)NCC2CCCO2)c1 (stereo not drawn)
AC50 [1]: 5.62 µM [rising, single point]

O=C(N/N=C\c1ccc([N+](=O)[O-])s1)c1cncc(Br)c1
AC50 [1]: 5.8 µM [falling, partial curve]

CC(C)(C)NC(=O)NC(=O)COC(=O)c1cccc(NS(=O)(=O)c2ccc(F)c(F)c2)c1
AC50 [1]: 23.1 µM [falling, single point]

COc1ccc(S(=O)(=O)Nc2ccc3c(c2)C(=O)N([C@H](C)CO)C[C@H](C)[C@@H](CN(C)S(=O)(=O)c2ccc(F)cc2)O3)cc1
AC50 [1]: 9.2 µM [rising, partial curve, poor fit]

NS(=O)(=O)c1cccc(NC(=O)c2ccc(S(=O)(=O)N3CCCCCC3)cc2)c1
AC50 [1]: 2.91 µM [rising, partial curve]

COc1ccc(CCNC(=O)CNC(=O)c2ccccc2Br)cc1OC
AC50 [1]: 0.1 µM [rising, full curve, poor fit]

O=C(COc1ccc([N+](=O)[O-])cc1)Nc1ccc2c(c1)CCC2
AC50 [1]: 20.6 µM [rising, partial curve, poor fit]

CCOc1ccc(NS(=O)(=O)c2ccc(NC(=S)NC(=O)C(C)C)cc2)cc1
AC50 [1]: 0.82 µM [rising, partial curve, poor fit]

COC(=O)c1cc(-c2ccc(S(=O)(=O)N3CCCC3)cc2)c(C(F)(F)F)s1
AC50 [1]: 7.94 µM [falling, partial curve]

Oc1c(CN2CCc3ccccc3C2)cc(Cl)c2cccnc12
AC50 [1]: 29.1 µM [falling, single point]

Cc1ccc(P(=O)(CSC(=N)N)c2ccc(C)cc2)cc1
AC50 [1]: 12.6 µM [falling, partial curve]
